Reference: paper PMC7931601
Results are given in words; binding and its absence hold for the method and conditions named. Binding seen in cells or lysates may run through a third protein. Some binding calls cover weakened binding; strength is not graded here.

Chains of the proteins cited; added tags and fusions are not shown. Residues count along the entry.
UniProt P43220, residues 24-463: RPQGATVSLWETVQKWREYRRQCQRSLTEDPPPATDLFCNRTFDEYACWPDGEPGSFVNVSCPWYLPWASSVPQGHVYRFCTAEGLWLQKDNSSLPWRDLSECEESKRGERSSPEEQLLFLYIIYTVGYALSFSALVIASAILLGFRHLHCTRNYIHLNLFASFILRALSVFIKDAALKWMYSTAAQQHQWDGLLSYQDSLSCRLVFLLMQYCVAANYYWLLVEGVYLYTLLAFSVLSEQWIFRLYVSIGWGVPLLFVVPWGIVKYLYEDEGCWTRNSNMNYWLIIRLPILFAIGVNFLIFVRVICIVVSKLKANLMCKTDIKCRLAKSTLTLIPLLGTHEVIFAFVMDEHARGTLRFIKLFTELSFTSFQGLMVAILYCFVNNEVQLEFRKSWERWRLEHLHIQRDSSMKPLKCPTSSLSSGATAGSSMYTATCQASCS
UniProt P32121: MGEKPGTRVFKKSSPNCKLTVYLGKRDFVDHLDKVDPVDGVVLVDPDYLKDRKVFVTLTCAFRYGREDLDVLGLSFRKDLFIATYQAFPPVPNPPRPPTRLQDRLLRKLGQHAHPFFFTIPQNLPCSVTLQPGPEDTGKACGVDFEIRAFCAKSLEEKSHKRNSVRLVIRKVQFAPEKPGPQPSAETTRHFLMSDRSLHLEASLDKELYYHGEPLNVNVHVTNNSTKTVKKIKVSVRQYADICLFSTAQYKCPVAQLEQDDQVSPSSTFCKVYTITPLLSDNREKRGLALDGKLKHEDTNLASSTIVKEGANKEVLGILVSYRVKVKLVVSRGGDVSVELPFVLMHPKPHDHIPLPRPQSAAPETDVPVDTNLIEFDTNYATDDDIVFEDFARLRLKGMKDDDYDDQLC

Target: GLP-1R-Sm-BiT (UniProt P43220)
Assay: split reporter; NanoBiT between β-arrestin-2-Lg-BiT and GLP-1R-Sm-BiT in live Min6B1 cells, luminescence for 30 min after 100 nM Exendin-4; cells with siSc or siGRK2 (48 h), or with Compound 101 (30 μM)

binding: binds
Substance: β-arrestin-2-Lg-BiT (from UniProt P32121 1-409)
